According to patent US12240857B2 (priority 2017, dated 2025):
Some results were stated once for a whole list of compounds, not compound by compound.

Legend:
[1] = tested on: parent VSV virus expressing the native VSV glycoprotein; format: cell-based, vesicular stomatitis virus
[2] = tested on: full-length LASV glycoprotein pseudotyped VSV; format: cell-based, Lassa virus

| SMILES | concentration inhibiting VSV (class III GP) relative to filovirus pseudotypes [1] [fold] | concentration inhibiting LASV (class I GP) pseudotype relative to filovirus pseudotypes [2] [fold] |
| --- | --- | --- |
| CC1CCCC(C)N1CC(O)COCCC12CC3CC(CC(C3)C1)C2 (stereo not shown) [Example D8, 1-[2-(adamantan-1-yl)ethoxy]-3-(2,6-dimethylpiperidin-1-yl) propan-2-ol] | > 10 | > 10 |
| CC1CCN(CC(O)COc2ccc(C34CC5CC(CC(C5)C3)C4)cc2)CC1 (stereo not shown) [Example D21, 1-[4-(adamantan-1-yl)phenoxy]-3-(4-methylpiperidin-1-yl)propan-2-ol] | > 10 | > 10 |
